Measurements reported in PubChem BioAssay AID1259254 (NCATS, 2017).

Screen: 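Finding genes that stop cells copying their DNA twice in one cycle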 (primary screen)
Cells: human HCT116 colorectal cancer cells
Reagents: single siRNA against human genes
Timing: 3 days
Measurement: 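Nuclei stained with Hoechst and imaged; cell-cycle phase assigned by DNA content; G2 share scaled per plate, non-targeting siRNA 0%, GMNN siRNA 100%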
Direction: G2 robust z-score and G2 cells, % of GMNN control: higher = more G2 cells, more excess DNA replication; raw share of cells in G2: higher = larger share of cells with G2 DNA content
Active means: 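Active siRNAs have a G2 robust z of 5 or more median absolute deviations over the median, which in these data means about 38% or higher of GMNN control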
This is an unselected part of about 59,000 reagents tested. In the full data, about 1,550 (2.6%) got an active call. 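G2 share is only a proxy for re-replication; each gene was hit by three separate siRNAs, and active genes were retested.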 Raw values are not corrected between plates. Not given: the amount of reagent.

Target gene	PubChem SID	G2 robust z-score	G2 cells, % of GMNN control	raw share of cells in G2 (%)	outcome
SH3TC2 (GeneID 79628)	SID160749032	0.313	5.17	6.83	inactive
SH3TC2 (GeneID 79628)	SID160749033	0.0268	3.16	6.02	inactive
SH3TC2 (GeneID 79628)	SID160749034	-0.475	-0.378	2.6	inactive
LYLDT1 (GeneID 121273)	SID160755878	-0.996	-4.04	2.47	inactive
LYLDT1 (GeneID 121273)	SID160755879	2.75	22.3	9.99	inactive
LYLDT1 (GeneID 121273)	SID160755880	-0.251	1.2	2.17	inactive
TRIM2 (GeneID 23321)	SID160736002	-0.94	-3.65	2.62	inactive
TRIM2 (GeneID 23321)	SID160736003	-0.0274	2.77	7.48	inactive
TRIM2 (GeneID 23321)	SID160736004	-0.17	1.77	4.75	inactive
PHF24 (GeneID 23349)	SID160732755	-0.741	-2.24	2.51	inactive
PHF24 (GeneID 23349)	SID160736072	-0.284	0.973	4.78	inactive
PHF24 (GeneID 23349)	SID160736073	2.58	21.1	13.1	inactive

4 entries already listed, arranged by “G2 cells, % of GMNN control”, ascending:
Target gene	PubChem SID	G2 robust z-score	G2 cells, % of GMNN control	raw share of cells in G2 (%)	outcome
PHF24 (GeneID 23349)	SID160732755	-0.741	-2.24	2.51	inactive
PHF24 (GeneID 23349)	SID160736072	-0.284	0.973	4.78	inactive
TRIM2 (GeneID 23321)	SID160736004	-0.17	1.77	4.75	inactive
PHF24 (GeneID 23349)	SID160736073	2.58	21.1	13.1	inactive

Continued:
Target gene	PubChem SID	G2 robust z-score	G2 cells, % of GMNN control	raw share of cells in G2 (%)	outcome
LCE5A (GeneID 254910)	SID160732812	-0.354	0.477	3.35	inactive
LCE5A (GeneID 254910)	SID160762239	0.973	9.81	7.13	inactive
LCE5A (GeneID 254910)	SID160762240	0.396	5.75	5.1	inactive
COQ2 (GeneID 27235)	SID160738566	-1.27	-6	3.44	inactive
COQ2 (GeneID 27235)	SID160738567	-0.734	-2.2	3.46	inactive
COQ2 (GeneID 27235)	SID160738568	-1	-4.08	2.65	inactive
KDELR3 (GeneID 11015)	SID160729746	0.544	6.79	9.16	inactive
KDELR3 (GeneID 11015)	SID160729747	-0.98	-3.93	3.99	inactive
KDELR3 (GeneID 11015)	SID160729748	-0.867	-3.13	2.83	inactive
NR0B1 (GeneID 190)	SID160715792	-0.352	0.487	5.85	inactive
NR0B1 (GeneID 190)	SID160715813	0.272	4.88	5.57	inactive
NR0B1 (GeneID 190)	SID160730742	0.858	9.01	7.63	inactive
WDFY4 (GeneID 57705)	SID160759737	-0.207	1.51	4.14	inactive
WDFY4 (GeneID 57705)	SID160759738	3.47	27.4	12.1	inactive
WDFY4 (GeneID 57705)	SID160759739	2.28	19	8.78	inactive
MMD2 (GeneID 221938)	SID160761787	0.602	7.2	7.73	inactive
MMD2 (GeneID 221938)	SID160761788	3.99	31	16.1	inactive
MMD2 (GeneID 221938)	SID160761790	-0.437	-0.107	5.91	inactive
